Values joined by “and” are separate entries in the source; they are usually repeats but may differ in a detail not shown here. Identical values can stand only once. Out of some 340,000 compounds screened, about 6,200 (1.8%) were called active. Inconclusive results, whose numbers are uncertain, are shown with a selection of clear calls. Calls come from the whole dose curve; as a rule, active = well fitted activation curve with a large enough effect; inconclusive = small, poorly fitted or top-dose-only effect; inactive = no such curve, though single readings can be large or run the other way. Potencies of inconclusive entries are doubtful fits and often do not repeat.
Experiment: A quantitative high throughput screen for small molecules that induce DNA re-replication in SW480 colon adenocarcinoma cells. For re-replication activation: % of control where 0% means no effect. Note: nearly all actives have a fitted effect of over 55% in size.
Conditions: Hoechst DNA content imaging, 48 h; re-replication activation: at 46.1 µM (top of the series)
Summary of the method: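 Image-based read-out: total Hoechst fluorescence of nuclei (405 nm excitation, 500-530 nm emission), with hits raising the fraction of high-intensity nuclei. SW480 colon cells incubated 48 hr with compounds at 37 C.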
With `Cc1oc(-c2ccc(Cl)cc2)nc1CN1CCC(C(=O)NCCCN2CCOCC2)CC1` the Potency was inconclusive: 29.1 µM [activator, partial curve, poor fit].
With `COc1cccc2cc(-c3nnc(-c4ccccc4)o3)c(=O)oc12` the Potency was inconclusive: 0.0041 µM [activator, full curve, poor fit].
In the case of `Cc1ccc(-n2cccc2/C=C2/C(=N)N3C(=NC2=O)SN=C3S(C)(=O)=O)cc1`, the “re-replication activation” value is reported as inactive: -2.77%.
With `C=CCc1ccccc1OCC(O)CN(CC)CC` (centres undefined) the Potency was inconclusive: 11.6 µM [activator, partial curve, poor fit].
For `CN(Cc1ccccc1F)C(=O)c1ccccc1Sc1ccccc1C#N`, the “re-replication activation” value was inactive: 2.98%.
In the case of `O=C(Nc1ccccc1C(=O)NCC1CCCO1)c1ccccc1` (centres undefined), the “re-replication activation” value is reported as inactive: -3.09%.
For `Cc1ccc(NC(=O)CCCCCN2C(=O)c3ccccc3C2=O)nc1`, the “re-replication activation” value was inactive: -4.9%.
For `COc1cc(/C=N/NC(=O)c2nnn(-c3nonc3N)c2C(C)C)ccc1OCc1ccc(F)cc1`, the Potency was inconclusive: 12.6 µM [activator, single point].
With `CCOc1ccc(OCC(=O)OC(C)C(=O)NC2CCCC2)cc1` (centres undefined) the Potency was inconclusive: 0.0046 µM [activator, full curve, poor fit].
In the case of `O=C1OCCN1C(=O)[C@H]1[C@H](c2ccccc2)C(c2ccc(F)cc2)=NN1c1ccccc1`, the Potency is reported as inconclusive: 0.651 µM [activator, full curve, poor fit].
In the case of `COc1ccc(CC2(CO)CCN(Cc3cnn(-c4ccc(F)cc4)c3)CC2)cc1`, the Potency is reported as inconclusive: 6.51 µM [activator, single point].
In the case of `Cn1c(NNC(=O)c2c(F)cccc2F)cc(=O)n(C)c1=O`, the Potency is reported as inconclusive: 4.61 µM [activator, single point].
With `Cc1ccc(-c2cc(-c3ccccc3)nc(N(C)N)n2)cc1` the “re-replication activation” value was inactive: -0.382%.
For `S=c1[nH]nc(CN2CCCC2)n1Cc1ccccc1`, the Potency was inconclusive: 6.51 µM [activator, single point].
In the case of `C=CCSc1nnc(NC(=O)CSCc2c(C)noc2C)s1`, the Potency is reported as inconclusive: 2.91 µM [activator, full curve, poor fit].
With `COC(=O)C1C(O)=C(C(C)=Nc2cccc3ccccc23)C(=O)CC1(C)C` (centres undefined) the Potency was active: 5.8 µM.
With `O=C(O)Cc1sc(Nc2ccccc2)nc1-c1cccs1` the Potency was inconclusive: 29.1 µM [activator, single point].
For `CCN(Cc1ccccc1)C(=O)c1ccc(N(C)S(=O)(=O)c2ccc(C)cc2)cc1`, the Potency was inconclusive: 16.4 µM [activator, partial curve, poor fit].
With `Cc1ccc(C(=O)NC2CCCCCCC2)cc1S(=O)(=O)N1CCOCC1` the “re-replication activation” value was inactive: -1.22%.
For `CCOc1ccc2cc(C#N)c(SCC(=O)N3CCC(C)CC3)nc2c1`, the “re-replication activation” value was inactive: 0.0199%.
With `Cc1c(N(C)C(=O)COc2ccc3ccccc3c2)c(=O)n(-c2ccccc2)n1C` the “re-replication activation” value was inactive: 3.77%.
For `COc1ccc2cc(C(=O)O)n(CC(=O)c3ccccc3)c2c1`, the Potency was inconclusive: 1.64 µM [activator, partial curve, poor fit].
For `COc1cc(/C=C/c2ccccc2)cc(OC)c1`, the Potency was inconclusive: 18.4 µM [activator, single point].
For `Cc1ccc(S(=O)(=O)N/N=C\c2cc3c(cc2[N+](=O)[O-])OCO3)cc1`, the Potency was inconclusive: 29.1 µM [activator, single point].
With `Cc1c(S(=O)(=O)N(C)C2CCCCC2)c(=O)n(C)c(=O)n1C` the Potency was inconclusive: 23.1 µM [activator, single point].
In the case of `CC(=O)Nc1ccc(CN2CCCC(CCC(=O)NCc3ccccc3F)C2)cc1` (centres undefined), the Potency is reported as inconclusive: 29.1 µM [activator, single point].
For `O=C(c1ccncc1)c1ccc(NS(=O)(=O)c2ccc(Br)s2)cc1`, the “re-replication activation” value was inactive: 0.411%.
For `CC1=CC(=NOC(=O)/C=C/c2ccccc2)C=C(C)C1=O`, the Potency was inconclusive: 23.1 µM [activator, single point].
In the case of `O=C(Oc1cc(=O)oc2c1c(=O)n1c3c(cccc23)CC1)c1ccc(F)cc1`, the Potency is reported as inconclusive: 14.6 µM [activator, partial curve, poor fit].
For `O=C(NCCCN1CCOCC1)c1cc(Cl)ccc1OCc1ccccc1`, the “re-replication activation” value was inactive: -0.906%.
With `CN(CC(=O)NC(=O)NCc1ccco1)Cc1nc2ccccc2c(=O)[nH]1` the Potency was active: 5.17 µM.
With `COC(=O)c1ccc(C(C(=O)NC2CCCCC2)N(Cc2ccc(F)cc2)C(=O)Cc2cccs2)cc1` (centres undefined) the “re-replication activation” value was inactive: 2.53%.
In the case of `COc1ccc(CNCCc2ccc(Cl)cc2)cc1OCc1ccccc1`, the Potency is reported as inconclusive: 29.1 µM [activator, single point].
With `CCCCn1c2c(c(=O)n(C)c1=O)C(c1ccc(OC)cc1)N1CCCCCC1=N2` (centres undefined) the “re-replication activation” value was inactive: -4.01%.
For `COc1ccc(-c2csc(NC(C)=O)n2)cc1OC`, the “re-replication activation” value was inactive: -19.4%.
With `Cc1cc(Cl)ccc1OCC(O)CNCCc1ccc(S(N)(=O)=O)cc1` (centres undefined) the Potency was inconclusive: 29.1 µM [activator, single point].
For `CCCCCCCCCCCCCCCC[N+](C)(C)CC`, the Potency was inconclusive: 10.6 µM [activator, partial curve] and inconclusive: 25.1 µM [activator, single point].
With `CCOc1cc(-c2cc(-c3ccc(OC)cc3)nc(N)c2C#N)ccc1O` the Potency was inconclusive: 16.4 µM [activator, partial curve, poor fit].
In the case of `C[C@H](CO)N1C[C@H](C)[C@@H](CN(C)Cc2ccc(C(=O)O)cc2)Oc2c(NS(=O)(=O)c3ccc(F)cc3)cccc2C1=O`, the re-replication activation is reported as inactive: -33.3% [at 9.22 µM].
In the case of `CC(C)[C@H](NC(=O)N1c2ccccc2NC(=O)[C@@H]1C(C)C)C(=O)N[C@@H](Cc1ccccc1)C(=O)O`, the Potency is reported as inconclusive: 0.92 µM [activator, full curve, poor fit].
For `CCC(CO)[n+]1c(C)cc(/C=C2\Sc3ccccc3N2Cc2ccccc2)cc1C` (centres undefined), the Potency was inconclusive: 18.4 µM [activator, single point].
In the case of `Cc1ccc(S(=O)(=O)N2CCC(C(=O)OCC(=O)NCc3cccc(Cl)c3)CC2)cc1C`, the “re-replication activation” value is reported as inactive: -3.14%.
In the case of `COc1ccc([C@H]2CC(=O)C=C(c3ccc4cc[nH]c4c3)C2)cc1`, the “re-replication activation” value is reported as inactive: 7.15%.
In the case of `COc1ccc(C(=O)c2oc3ccc(OC)cc3c2NC(C)=O)cc1`, the Potency is reported as inconclusive: 18.4 µM [activator, single point].

Reference: PubChem BioAssay AID624297 (National Center for Advancing Translational Sciences (NCATS), 2012)
Potency is the fitted concentration of half-maximal effect.
